Data reported in the supplement of paper PMC11060735.
Values joined by “and” are separate entries in the source; they are usually repeats but may differ in a detail not shown here. Equal entries are not always repeated. Structures can show the parent of a compound that is named as a salt. ± gives the standard deviation of the averaged measurements. The full ranking holds about 1,800 compounds; the median of “GFP- (p16Ink4a-) cell count relative to negative-control wells” is about 0.99, and the lowest 2% start at about 0.5. This is one part of the list.

tested on: mouse p16Ink4a+/- lung fibroblasts (INKBRITE, bleomycin-injured); assay: GFP- (p16Ink4a-) cell count relative to negative-control wells (fold of vehicle); higher = more p16Ink4a- cells surviving; settings: 1 µM; 3 days

Compound	GFP-
Cn1ncnc1[C@H]1c2nnc(O)c3cc(F)cc(c23)N[C@@H]1c1ccc(F)cc1	0.616 ± 0.066
COc1ccc(CNCc2cccc3ccccc23)cc1	1.11
COC(=O)C1=C(C)N=C(C)/C(=C(/O)OC)C1c1ccccc1[N+](=O)[O-] (stereo not drawn) [Nifedipine]	1.09
CC(C)(C)NC[C@H](O)COc1nsnc1N1CCOCC1 [Timolol]	1.22
COc1cc([C@H]2Oc3cc([C@H]4Oc5cc(O)cc(O)c5C(=O)[C@@H]4O)ccc3O[C@@H]2CO)ccc1O [Silibinin A]	1.12
CCc1cc(C(N)=S)ccn1 [Ethionamide]	1.06
C[C@@H]1O[C@@H](O[C@H]2[C@H](Oc3cc(O)c4c(c3)O[C@H](c3ccc(O)cc3)CC4=O)O[C@H](CO)[C@@H](O)[C@@H]2O)[C@H](O)[C@H](O)[C@H]1O [Naringin]	1.1
C/N=C(/NC#N)NCCSCc1[nH]cnc1C [Cimetidine]	0.976
Nc1nccs1 [Aminothiazole]	0.976
NC(=O)c1cccnc1 [Nicotinamide]	1.05
Fc1cc(-c2cccc3ncc(-c4cnn(C5CCNCC5)c4)nc23)cc(F)c1CN1CCOCC1	0.807 ± 0.094
CN(C)CCC(CSc1ccccc1)Nc1ccc(S(=O)(=O)NC(=O)c2ccc(N3CCN(Cc4ccccc4-c4ccc(Cl)cc4)CC3)cc2)cc1[N+](=O)[O-] (stereo not drawn)	0.89
O=C(NCC1CN(c2ccc(N3CCOCC3=O)cc2)C(=O)O1)c1ccc(Cl)s1 (stereo not drawn) [Rivaroxaban]	1.06
CCCCN(Cc1ccc(C(=O)NO)cc1)C(=O)Nc1ccccc1 [Nexturastat A]	0.708 ± 0.068
CCCCCCCCCCCCCCCC[N+](C)(C)C [Cetrimonium]	0.997
O=C1Cc2cc(CCN3CCN(c4nsc5ccccc45)CC3)c(Cl)cc2N1 [Ziprasidone Mesylate, Ziprasidone]	1.09
COc1cc(Nc2c(C#N)cnc3cc(OCCCN4CCN(C)CC4)c(OC)cc23)c(Cl)cc1Cl [Bosutinib]	0.893
CCC(C)(C)c1ccc(CC(C)CN2C[C@@H](C)O[C@@H](C)C2)cc1 (stereo partly drawn) [Amorolfine]	1.06
CS(=O)(=O)CCNCc1ccc(-c2ccc3ncnc(Nc4ccc(OCc5cccc(F)c5)c(Cl)c4)c3c2)o1 [Lapatinib]	0.966
COC(c1ccccc1)(c1ccccc1)[C@H](Oc1nc(C)cc(C)n1)C(=O)O [Ambrisentan]	0.89
N#CC1(c2ccc(NC(=O)c3cccnc3NCc3ccncc3)cc2)CCCC1 [Apatinib]	0.961
O=c1c(-c2ccc(O)cc2)coc2cc(O)ccc12 [Daidzein]	1.04
O=C(Nc1ncc(SCCN2CCCC2)s1)[C@]1(c2ccc(S(=O)(=O)C3CC3)cc2)C[C@H]1C1CCCCC1	0.887
O=S(=O)(O)c1cc(O)ccc1O [Ethamsylate]	0.995
O=C(CSc1nc2c(c(=O)n1-c1ccccc1)SCC2)Nc1ccc(-c2ccccc2)cn1	0.987
CN[C@@H]1[C@H](O[C@H]2[C@H](O[C@H]3[C@H](O)[C@@H](O)[C@@H](N=C(N)N)[C@@H](O)[C@@H]3N=C(N)N)O[C@@H](C)[C@@]2(O)C=O)O[C@H](CO)[C@H](O)[C@H]1O [Streptomycin sulfate]	1.2

Compound	GFP-
CC(C)C[C@H](NC(=O)[C@@H]1O[C@H]1C(=O)O)C(=O)NCCCCN=C(N)N	0.915
NS(=O)(=O)c1cc2c(cc1Cl)NC(C(Cl)Cl)NS2(=O)=O (stereo not drawn) [Trichlormethiazide]	1.03
C[C@@H]1CC(=O)NN=C1c1ccc(NN=C(C#N)C#N)cc1 [Levosimendan]	1.03
O=C(/C=C/c1ccccc1)NC(NC(=S)Nc1cccc2cccnc12)C(Cl)(Cl)Cl (stereo not drawn) [Salubrinal]	1.09
CCCCOc1ccc(OCCCN2CCOCC2)cc1 [Pramocaine]	1.06
Cc1cc(NS(=O)(=O)c2ccc(N)cc2)no1 [Sulfamethoxazole]	0.967
CC(/C=C1\SC(=S)N(CC(=O)O)C1=O)=C\c1ccccc1 [Epalrestat]	0.978
COc1ccc(-c2cc(=O)c3c(O)cc(O[C@@H]4O[C@H](CO[C@@H]5O[C@@H](C)[C@H](O)[C@@H](O)[C@H]5O)[C@@H](O)[C@H](O)[C@H]4O)cc3o2)cc1O [Diosmin]	0.88
O=C(c1ccc(F)cc1)C1CCN(CCn2c(=O)[nH]c3ccccc3c2=O)CC1 [Ketanserin Tartrate]	0.924
CCN(CC)CCOC(=O)C(c1ccccc1)c1ccccc1 [Adiphenine Hydrochloride]	1.18
CC1(C)[C@@H](O[C@H]2O[C@H](C(=O)O)[C@@H](O)[C@H](O)[C@H]2O[C@@H]2O[C@H](C(=O)O)[C@@H](O)[C@H](O)[C@H]2O)CC[C@]2(C)[C@H]3C(=O)C=C4[C@@H]5C[C@@](C)(C(=O)O)CC[C@]5(C)CC[C@@]4(C)[C@]3(C)CC[C@@H]12 [Glycyrrhizin]	0.86 and 1.01
O=C(O)[C@]1(Cc2cccc(Nc3nccs3)n2)CC[C@@H](Oc2cccc(Cl)c2F)CC1	0.836 ± 0.086
C[C@H]1C[C@@H]2[C@H]([C@@H](O)C[C@@]3(C)[C@H]2CC[C@]3(O)C(=O)CO)[C@@]2(C)C=CC(=O)C=C12 [Methylprednisolone]	0.847
Cc1nc(C#Cc2ccnc(Cl)c2)c(C)n1-c1ccc(OC(F)(F)F)cc1	1.02
Cc1nc(Nc2ncc(C(=O)Nc3c(C)cccc3Cl)s2)cc(N2CCN(CCO)CC2)n1 [Dasatinib]	0.662
O=S(=O)(O)CCSSCCS(=O)(=O)O [Dimesna]	1.05
N#C[C@@H]1CCCN1C(=O)CNC12CC3CC(CC(O)(C3)C1)C2 [Vildagliptin]	1.04
CCCS(=O)(=O)Nc1ccc(F)c(C(=O)c2c[nH]c3ncc(Cl)cc23)c1F	0.94
C[C@@H]1C(=O)O[C@H]2CC34[C@H]5C[C@@H](C(C)(C)C)C36[C@@H](OC(=O)[C@@H]6O)O[C@@]4(C(=O)O5)[C@]21O (stereo partly drawn) [Ginkgolide A]	1.01
COc1ccc(-c2ccc3cc(C(=O)O)ccc3c2)cc1C12CC3CC(CC(C3)C1)C2 [Adapalene]	1.05
Cc1ncc(-c2ccnc(Nc3ccc(S(C)(=O)=O)cc3)n2)n1C(C)C	0.878
O=C(Nc1c[nH]nc1-c1nc2cc(CN3CCOCC3)ccc2[nH]1)NC1CC1	0.627 ± 0.12
CCN(CC)C(=O)[C@]1(c2ccccc2)C[C@@H]1CN [Milnacipran]	1
Cc1cccc(-c2nn3c(c2-c2ccnc4ccc(C(N)=O)cc24)CCC3)n1	1.25
N#C/C(=C1/SC[C@@H](c2ccc(Cl)cc2Cl)S1)n1ccnc1 [Luliconazole]	1.03
CNCc1cc(-c2ccccc2F)n(S(=O)(=O)c2cccnc2)c1	0.899

Compound	GFP-
Cc1nc(-c2ccc(OCC(C)C)c(C#N)c2)sc1C(=O)O [Febuxostat]	0.877
Cn1c(=O)cc(N2CCC[C@@H](N)C2)n(Cc2ccccc2C#N)c1=O [Alogliptin]	0.943
CC(C)N(CC[C@H](c1ccccc1)c1cc(CO)ccc1O)C(C)C [5-hydroxymethyl Tolterodine]	0.955
Nc1ccccc1NC(=O)c1ccc(CNC(=O)OCc2cccnc2)cc1 [Entinostat]	0.641 ± 0.022
CN(C)CCC[C@@]1(c2ccc(F)cc2)OCc2cc(C#N)ccc21 [Citalopram]	0.97
O=C(Nc1ccc(S(=O)(=O)Nc2ccccc2Cl)c(Cl)c1)c1ccccn1	1.12
CCc1c2c(nc3ccc(O)cc13)-c1cc3c(c(=O)n1C2)COC(=O)[C@]3(O)CC	0.749
CCCc1nc2c(C)cc(-c3nc4ccccc4n3C)cc2n1Cc1ccc(-c2ccccc2C(=O)O)cc1 [Telmisartan]	1.04
C=C1C(n2cnc3c(O)nc(N)nc32)C[C@H](O)[C@H]1CO (stereo partly drawn) [Entecavir Hydrate]	0.958
Clc1ccc(C(c2ccccc2Cl)C(Cl)Cl)cc1 (stereo not drawn) [Mitotane]	1.14
CCCNCC(O)COc1ccccc1C(=O)CCc1ccccc1 (stereo not drawn) [Propafenone]	1.07
CCCN(CCC)CCc1cccc2c1CC(=O)N2 [Ropinirole]	1
CC(C)c1ccc(NC(=O)Cn2cnc3c2c(=O)n(C)c(=O)n3C)cc1	0.98
CNC(=O)c1ccccc1Sc1ccc2c(/C=C/c3ccccn3)[nH]nc2c1 [Axitinib]	0.863
C=CC/N=C1\C(=O)C=C2NC(=O)/C(C)=C/C=C\[C@H](OC)[C@@H](OC(N)=O)/C(C)=C/[C@H](C)[C@@H](O)[C@@H](OC)C[C@H](C)CC1=C2O [Tanespimycin]	0.728
CCCC(CCC)C(=O)O [Valproic Acid]	0.982 and 1.05
Nc1nc(Cl)nc2c1ncn2[C@@H]1O[C@H](CO)[C@@H](O)[C@@H]1F [Clofarabine]	1.02
CNC(=O)Nc1ccc(-c2nc(N3CC4CCC(C3)O4)c3cnn(C4CCC5(CC4)OCCO5)c3n2)cc1	0.566
CCn1cc(C(=O)O)c(=O)c2cc(F)c(N3CCN(C)CC3)cc21 [Pefloxacin]	0.947
CCOC(=O)Nc1cc(-c2ccc(C)c(NS(C)(=O)=O)c2)nn2c(C)nnc12 [Bromosporine]	0.936 ± 0.036
CC(C)[C@H](C(=O)Nc1ccc(C(=O)NO)cc1)c1ccccc1	0.563 ± 0.035
O=C1NC(=O)C(c2ccccc2[N+](=O)[O-])=C1Nc1ccc(O)c(Cl)c1	1.13
CCN(CCCc1ccccc1)CCCc1ccccc1 [Alverine]	1.03
COc1ccc(C(=O)Nc2sc3c(c2C(N)=O)CCCC3)cc1OC	1.02
C=C1CC[C@H](O)C/C1=C/C=C1\CCC[C@]2(C)[C@@H]([C@H](C)CCCC(C)(C)O)CC[C@@H]12 [Calcidiol]	1.2
Cc1c(N(C)C)c(=O)n(-c2ccccc2)n1C [Aminophenazone]	0.979

Reprinted from the entries so far (4 entries):
Compound	GFP-
CNC(=O)c1ccccc1Sc1ccc2c(/C=C/c3ccccn3)[nH]nc2c1 [Axitinib]	0.863
C=CC/N=C1\C(=O)C=C2NC(=O)/C(C)=C/C=C\[C@H](OC)[C@@H](OC(N)=O)/C(C)=C/[C@H](C)[C@@H](O)[C@@H](OC)C[C@H](C)CC1=C2O [Tanespimycin]	0.728
CCCC(CCC)C(=O)O [Valproic Acid]	0.982 and 1.05
Nc1nc(Cl)nc2c1ncn2[C@@H]1O[C@H](CO)[C@@H](O)[C@@H]1F [Clofarabine]	1.02
